Among the data in PubChem BioAssay AID248 (DTP/NCI, 2004) are survivor count and T/C values, retold here.

The list does not hold the whole screen: it gathers tests that were run many times, whatever their T/C, doses with no T/C, and many T/C values between a quarter and a half above the control. Further doses and runs are listed elsewhere. T/C: endpoint of the treated group in % of that of the vehicle group. Some entries give survivors of the animals treated and no T/C: the source files T/C as zero there, which appears to mark a toxic dose or a test without result, not a measured value. Some doses without a T/C left all or most animals alive at the check, yet need not have been tolerated: the source hardly ever lists a survival T/C far under the control, and the zero likely stands for such cases as well. Counts of survivors are from the toxicity check (mostly the fifth day) where no day follows; animals may have died later. Schedules are NCI's codes, taken here to give the interval after Q, in days (D) or hours (H), and the number of doses after X. Some entries were tested several times; their values stand side by side, smallest first. Some schedule codes hold Z or #, which are not explained here. Some molecules as drawn cover several salts, stereoisomers or complexes of the source; a dose is that of the sample tested. For survival time, the PubChem record calls one and a half times the control and up active, and a quarter to a half above the control has no call in these data; cut-offs in other NCI protocols can differ.

This test deals with L1210 leukemia ip in BDF1 mice, survival T/C. Nature of the test: NCI In Vivo Anticancer Drug Screen. Data for tumor model L1210 Leukemia (intraperitoneal) in B6D2F1 (BDF1) mice. As to conditions: higher T/C = longer survival.
[1] abbreviates: T/C endpoint: mean survival time, dose: 200.0 mg/kg/injection, schedule: Q01DX001 (ip), vehicle: saline.
[2] abbreviates: T/C endpoint: mean survival time, dose: 400.0 mg/kg/injection, schedule: Q01DX001 (ip), vehicle: saline.
[3] abbreviates: T/C endpoint: mean survival time, dose: 200.0 mg/kg/injection, schedule: Q01DX009 (ip), vehicle: saline with Tween-80.
Where [4] appears, read: T/C endpoint: mean survival time, dose: 400.0 mg/kg/injection, schedule: Q01DX009 (ip), vehicle: saline with Tween-80.
Where [5] appears, read: T/C endpoint: mean survival time, dose: 50.0 mg/kg/injection, schedule: Q04DX002 (ip), vehicle: Klucel (hydroxypropylcellulose) (HPC).
Setting [6] is: T/C endpoint: mean survival time, dose: 100.0 mg/kg/injection, schedule: Q04DX002 (ip), vehicle: Klucel (hydroxypropylcellulose) (HPC).
Setting [7] is: T/C endpoint: mean survival time, dose: 200.0 mg/kg/injection, schedule: Q04DX003 (ip), vehicle: saline.
Where [8] appears, read: T/C endpoint: mean survival time, dose: 400.0 mg/kg/injection, schedule: Q04DX003 (ip), vehicle: saline.
Where [9] appears, read: T/C endpoint: mean survival time, dose: 50.0 mg/kg/injection, schedule: Q01DX009 (ip), vehicle: Klucel (hydroxypropylcellulose) (HPC).
Setting [10] is: T/C endpoint: mean survival time, dose: 100.0 mg/kg/injection, schedule: Q01DX009 (ip), vehicle: Klucel (hydroxypropylcellulose) (HPC).
Where [11] appears, read: T/C endpoint: mean survival time, dose: 200.0 mg/kg/injection, schedule: Q01DX009 (ip), vehicle: Klucel (hydroxypropylcellulose) (HPC).
Where [12] appears, read: T/C endpoint: mean survival time, dose: 200.0 mg/kg/injection, schedule: Q04DX003 (ip), vehicle: Klucel (hydroxypropylcellulose) (HPC).
Where [13] appears, read: T/C endpoint: mean survival time, dose: 400.0 mg/kg/injection, schedule: Q04DX003 (ip), vehicle: Klucel (hydroxypropylcellulose) (HPC).

Turning to `CCCNc1ccc(C2=NCCCN2)cc1`, the survivor count by setting is: under setting [1], 0 of 4; under setting [2], 0 of 4.

As to `O=C1c2cccc3c2C2(O)c4c1cccc4C(=O)c1cccc(c12)C3=O`, the T/C under setting [3] is 134 % of control. The survivor count under setting [4] was 6 of 6.

With `O=C(C[n+]1cccc(CO)c1)c1ccc(-c2ccc(C(=O)C[n+]3cccc(CO)c3)cc2)cc1`, the survivor count by setting is: (T/C endpoint: mean survival time, dose: 100.0 mg/kg/injection, schedule: Q01DX001 (ip), vehicle: saline) 0 of 6; under setting [1], 0 of 6; under setting [2], 0 of 6.

For the compound `O=[N+]([O-])c1ccc(/C=N/c2oc(-c3ccc([N+](=O)[O-])cc3)nc2Sc2ccccc2)cc1`, under setting [5], the T/C is 91 and 111 % of control; the survivor count is given as 3 of 3. For the same compound, under setting [6], the T/C is 100 % of control; the survivor count is 2 of 3 and 3 of 3.

Turning to `c1ccc2c(c1)CNCc1ccccc1-2`, the survivor count by setting is: under setting [7], 0 of 6; under setting [8], 0 of 6.

Take `Nc1ccc(OCC(=O)Nc2ccc(S(=O)(=O)F)cc2)cc1`: the survivor count under setting [2] is 3 of 6.

With `COc1ccc(Nc2cc(C)nc(N)n2)cc1`, the survivor count (T/C endpoint: mean survival time, dose: 100.0 mg/kg/injection, schedule: Q01DX Z (ip), vehicle: methylcellulose (MC)) was 6 of 6 and the survivor count (T/C endpoint: mean survival time, dose: 200.0 mg/kg/injection, schedule: Q01DX Z (ip), vehicle: methylcellulose (MC)) is on record as 6 of 6.

Regarding `CC(C)(C)C1=CC(=O)C(C#N)=C(C#N)C1=O`, the survivor count was 2 of 6 under setting [7] and 0 of 6 under setting [8].

Take `CN1CCN(c2ccc3nnc(Cl)n3n2)CC1`: the survivor count is, setting by setting: (T/C endpoint: mean survival time, dose: 100.0 mg/kg/injection, schedule: Q04DX003 (ip), vehicle: saline with Tween-80) 3 of 4; (T/C endpoint: mean survival time, dose: 200.0 mg/kg/injection, schedule: Q04DX003 (ip), vehicle: saline with Tween-80) 0 of 4.

`O=c1[nH]c2ncccc2c(=O)n1O`: under setting [2], the survivor count is recorded as 1 of 4.

For `CC(CC(=O)N1CCCCC1)CC(=O)N1CCCCC1`, the survivor count under setting [2] is listed as 1 of 6.

As to `CC(C)(C)C(=O)Cn1nnnc1C(=O)C(C)(C)C`, the survivor count (T/C endpoint: mean survival time, dose: 400.0 mg/kg/injection, schedule: Q01DX001 (ip), vehicle: Klucel (hydroxypropylcellulose) (HPC)) is on record as 0 of 6.

For the compound `OC1CC2CCC(C1)N2` (stereo not drawn), under “T/C endpoint: mean survival time, dose: 300.0 mg/kg/injection, schedule: Q01DX001 (ip), vehicle: saline”, the survivor count is 3 of 6.

For `NC(N)=NCCCC(NC(=O)OCc1ccccc1)C(=O)Nc1ccc2ccccc2c1` (stereo not drawn), the survivor count (T/C endpoint: mean survival time, dose: 400.0 mg/kg/injection, schedule: Q01DX009 (ip), vehicle: Klucel (hydroxypropylcellulose) (HPC)) is 0 of 6.

In the case of `CCCCCCCC(=O)N(CCN(N=O)C(=O)CCCCCCC)N=O`, under setting [1], the survivor count was 6 of 6.

Turning to `O=C(O)c1ccccc1N(CCO)CCCl`, the survivor count is 0 of 6 (T/C endpoint: median survival time, dose: 100.0 mg/kg/injection, schedule: Q01DX009 (ip), vehicle: Klucel (hydroxypropylcellulose) (HPC)); 0 of 6 (T/C endpoint: median survival time, dose: 200.0 mg/kg/injection, schedule: Q01DX009 (ip), vehicle: Klucel (hydroxypropylcellulose) (HPC)); 0 of 6 (T/C endpoint: median survival time, dose: 400.0 mg/kg/injection, schedule: Q01DX009 (ip), vehicle: Klucel (hydroxypropylcellulose) (HPC)).

As for `O=NN(CCF)C(=O)NCCF`, the T/C (T/C endpoint: mean survival time, dose: 4.0 mg/kg/injection, schedule: Q01DX001 (ip), vehicle: saline) is 147 % of control. Further, the survivor count (T/C endpoint: mean survival time, dose: 14.0 mg/kg/injection, schedule: Q01DX001 (ip), vehicle: saline) was 4 of 10; the survivor count (T/C endpoint: mean survival time, dose: 18.0 mg/kg/injection, schedule: Q01DX001 (ip), vehicle: saline) is reported as 2 of 6; the survivor count (T/C endpoint: mean survival time, dose: 26.0 mg/kg/injection, schedule: Q01DX001 (ip), vehicle: saline) was 2 of 6; the survivor count (T/C endpoint: mean survival time, dose: 28.0 mg/kg/injection, schedule: Q01DX001 (ip), vehicle: saline) is listed as 0 of 10; the survivor count (T/C endpoint: mean survival time, dose: 40.0 mg/kg/injection, schedule: Q01DX001 (ip), vehicle: saline) is listed as 0 of 6; the survivor count (T/C endpoint: mean survival time, dose: 60.0 mg/kg/injection, schedule: Q01DX001 (ip), vehicle: saline) is reported as 0 of 6. For the same compound, the survivor count reads like this: (T/C endpoint: mean survival time, dose: 90.0 mg/kg/injection, schedule: Q01DX001 (ip), vehicle: saline) 0 of 6; (T/C endpoint: mean survival time, dose: 133.0 mg/kg/injection, schedule: Q01DX001 (ip), vehicle: saline) 0 of 6; under setting [1], 0 of 6.

Take `CC(Cl)CN1Cc2ccccc2CCc2ccccc2C1` (stereo not drawn): the survivor count under setting [6] was 1 of 3.

Turning to `CCOC(=O)NN=C1CCCC1`, under setting [3], the survivor count was 0 of 3.

With `CCCN(C)N=Nc1ccccc1C(N)=O`, the T/C is, setting by setting: (T/C endpoint: mean survival time, dose: 100.0 mg/kg/injection, schedule: Q01DX009 (ip), vehicle: saline with Tween-80) 131 and 134 % of control; (T/C endpoint: mean survival time, dose: 400.0 mg/kg/injection, schedule: Q01DX001 (ip), vehicle: other) 140 % of control.

Turning to `Cc1cc(C)c(C(=O)O)c(O)c1`, the survivor count was 4 of 4 (T/C endpoint: mean survival time, dose: 100.0 mg/kg/injection, schedule: Q01DX001 (ip), vehicle: carboxymethylcellulose (CMC)) and 3 of 4 (T/C endpoint: mean survival time, dose: 400.0 mg/kg/injection, schedule: Q01DX001 (ip), vehicle: carboxymethylcellulose (CMC)).

On to `Cc1cc(Cl)c(OC(=O)Nc2ccccc2F)cc1C`, for which the survivor count reads like this: under setting [3], 6 of 6; under setting [4], 2 of 6.

For `CCOc1ccccc1N1C(=O)CSC1=S`, under “T/C endpoint: mean survival time, dose: 100.0 mg/kg/injection, schedule: Q04DX002 (ip), vehicle: other”, the T/C was 127 % of control.

`N=C1C=C(N)C(=O)c2ccccc21`: the survivor count was 1 of 3 (T/C endpoint: mean survival time, dose: 6.25 mg/kg/injection, schedule: Q01DX009 (ip), vehicle: Klucel (hydroxypropylcellulose) (HPC)); 0 of 3 (T/C endpoint: mean survival time, dose: 12.5 mg/kg/injection, schedule: Q01DX009 (ip), vehicle: Klucel (hydroxypropylcellulose) (HPC)); 0 of 3 (T/C endpoint: mean survival time, dose: 25.0 mg/kg/injection, schedule: Q01DX009 (ip), vehicle: Klucel (hydroxypropylcellulose) (HPC)); 0 of 3 under setting [9]; 0 of 3 under setting [10]; 0 of 3 under setting [11]. Besides, the survivor count reads like this: under setting [3], 0 of 6; under setting [4], 0 of 6.

On to `CC(CN)NCc1ccccc1` (stereo not drawn), for which the survivor count (T/C endpoint: mean survival time, dose: 400.0 mg/kg/injection, schedule: Q01DX009 (ip), vehicle: saline) is recorded as 3 of 6.

As for `CC1(Cl)C(=O)NC(=O)C1Cl` (stereo not drawn), the survivor count is, setting by setting: (T/C endpoint: mean survival time, dose: 12.5 mg/kg/injection, schedule: Q01DX009 (ip), vehicle: saline) 6 of 6; (T/C endpoint: mean survival time, dose: 100.0 mg/kg/injection, schedule: Q04DX003 (ip), vehicle: saline) 3 of 6; under setting [7], 0 of 6; under setting [8], 0 of 6.

As to `NCCN1C(c2ccccc2)C1c1ccccc1` (stereo not drawn), the survivor count under setting [7] is 3 of 6.

Regarding `CC(=O)[O][Hg][CH]1CCC2OC1CC[CH]2[Hg][O]C(C)=O` (stereo not drawn), the survivor count is, setting by setting: under setting [9], 1 of 6; under setting [10], 3 of 6; (T/C endpoint: mean survival time, dose: 100.0 mg/kg/injection, schedule: Q04DX003 (ip), vehicle: Klucel (hydroxypropylcellulose) (HPC)) 0 of 6 and 3 of 6; under setting [11], 0 of 6; under setting [12], 0 of 6; under setting [13], 0 of 6.

As to `CS(=O)(=O)OCCN(CCOS(C)(=O)=O)c1ccc(C=Nc2cc(Br)c(O)c(Br)c2)cc1`, the survivor count by setting is: under setting [12], 3 of 6; under setting [13], 5 of 6.

Take `OC1C(O)C(O)C2(CO2)C(O)C1O` (stereo not drawn): the T/C (T/C endpoint: mean survival time, dose: 300.0 mg/kg/injection, schedule: Q01DX Z (ip), vehicle: saline) was 133 % of control.

On to `CC(C)CC(NC(=O)CCl)C(=O)NCC(=O)O` (stereo not drawn), for which the survivor count under setting [3] was 3 of 6 and the survivor count under setting [4] is recorded as 3 of 6.
